Experimental data as given in PMC8298471.
Results are given in words; binding and its absence hold for the method and conditions named. In cells and extracts the contact can be indirect. Some results given as binding are weak or reduced against the parent protein; the word gives no strength.

By UniProt entry, the sequences of proteins in these tests, tags left out.
UniProt P32302: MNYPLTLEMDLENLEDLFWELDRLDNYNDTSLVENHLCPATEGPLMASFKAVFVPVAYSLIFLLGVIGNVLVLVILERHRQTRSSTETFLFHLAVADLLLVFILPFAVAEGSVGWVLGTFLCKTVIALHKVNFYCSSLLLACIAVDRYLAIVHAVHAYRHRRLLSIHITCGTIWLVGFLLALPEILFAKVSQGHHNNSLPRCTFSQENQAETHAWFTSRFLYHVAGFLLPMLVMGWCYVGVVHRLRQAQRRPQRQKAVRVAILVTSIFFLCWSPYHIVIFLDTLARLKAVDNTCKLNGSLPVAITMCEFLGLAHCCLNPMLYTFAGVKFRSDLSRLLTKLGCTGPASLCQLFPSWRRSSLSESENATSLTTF
UniProt P04899: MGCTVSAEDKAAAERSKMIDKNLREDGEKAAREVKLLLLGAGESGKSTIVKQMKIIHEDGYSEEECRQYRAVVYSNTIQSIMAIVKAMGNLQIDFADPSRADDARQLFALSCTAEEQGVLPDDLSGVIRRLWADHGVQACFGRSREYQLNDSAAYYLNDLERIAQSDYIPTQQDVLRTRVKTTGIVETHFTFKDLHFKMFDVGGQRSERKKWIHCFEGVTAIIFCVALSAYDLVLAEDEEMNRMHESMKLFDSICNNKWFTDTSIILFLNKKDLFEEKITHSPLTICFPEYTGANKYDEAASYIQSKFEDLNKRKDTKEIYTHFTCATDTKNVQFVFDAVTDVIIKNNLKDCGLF

What was measured:
[1] = molecular target: C-X-C chemokine receptor type 5 (CXCR5), endogenous (human (endogenous in HUVECs)) (UniProt P32302); experiment: co-IP; HUVECs transfected with GNAI2-WT or GNAI2-C66A, treated with HG + oxLDL; lysates (40 mM HEPES pH 7.4, 2 mM EDTA, 0.5% Triton X-100); indicated antibody overnight at 4 °C, protein A/G agarose, western blot (Fig. 4b)
[2] = molecular target: C-X-C chemokine receptor type 5 (CXCR5), endogenous (human (endogenous in HUVECs)) (UniProt P32302); experiment: co-IP; endogenous proteins in HUVEC lysates (40 mM HEPES pH 7.4, 2 mM EDTA, 0.5% Triton X-100); indicated antibody overnight at 4 °C, protein A/G agarose, five washes, western blot; normal conditions (Fig. 4a, Supplementary Fig. 4d); also HG + oxLDL with or without melatonin (Fig. 6g)

Substance | binding [1] | binding [2]
HA-GNAI2-WT (from UniProt P04899 1-355) | binds | 
guanine nucleotide-binding protein G(i) subunit alpha-2 (GNAI2), endogenous (from UniProt P04899 1-355) |  | binds
